Source: paper PMC8677339
These are yes or no findings as the source states them, for the method shown. Binding seen in cells or lysates may run through a third protein. Some results given as binding are weak or reduced against the parent protein; the word gives no strength.

Protein sequences, listed by entry. Tags and fused reporters are not part of them. Residues count along the entry.
UniProt Q9UN70, residues 32-934: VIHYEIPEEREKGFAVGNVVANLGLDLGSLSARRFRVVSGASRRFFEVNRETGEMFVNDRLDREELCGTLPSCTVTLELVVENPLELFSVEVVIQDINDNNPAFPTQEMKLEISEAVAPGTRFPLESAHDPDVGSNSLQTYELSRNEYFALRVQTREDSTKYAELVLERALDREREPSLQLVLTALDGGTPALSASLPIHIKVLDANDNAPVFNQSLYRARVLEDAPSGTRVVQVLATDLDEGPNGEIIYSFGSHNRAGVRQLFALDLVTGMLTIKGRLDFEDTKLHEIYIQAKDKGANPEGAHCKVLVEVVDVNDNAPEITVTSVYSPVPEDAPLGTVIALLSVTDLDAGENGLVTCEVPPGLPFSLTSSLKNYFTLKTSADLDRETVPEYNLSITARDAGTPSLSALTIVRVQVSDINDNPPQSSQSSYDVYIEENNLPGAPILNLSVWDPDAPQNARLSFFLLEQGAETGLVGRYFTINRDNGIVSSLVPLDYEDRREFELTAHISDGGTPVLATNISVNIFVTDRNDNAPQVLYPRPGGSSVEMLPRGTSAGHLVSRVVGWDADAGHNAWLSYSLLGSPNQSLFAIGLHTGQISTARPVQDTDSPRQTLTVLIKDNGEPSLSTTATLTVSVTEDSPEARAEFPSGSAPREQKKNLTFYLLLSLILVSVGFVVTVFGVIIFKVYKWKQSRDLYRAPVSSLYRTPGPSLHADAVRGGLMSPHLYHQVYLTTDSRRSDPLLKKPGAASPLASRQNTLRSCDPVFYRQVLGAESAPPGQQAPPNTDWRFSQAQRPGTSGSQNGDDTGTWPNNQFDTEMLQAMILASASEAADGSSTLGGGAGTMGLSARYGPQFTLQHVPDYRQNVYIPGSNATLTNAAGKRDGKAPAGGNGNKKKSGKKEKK

B1: disheveled-1 (Dvl1) (protein, UniProt F1N6M9 1-647)
chain: MPSCPASTAVWSPGWFWLRVLTRMQGLRALMDTQTCPRLLSGQVASGTPGLPPSTRMWPAAAMGWITRLARSHWSATGGSEPDAGTVKRGIPWPGPVPAVPTAARTNGHPRGDRRRDLGLPPDSASTVLSSELESSSFIDSDEDDNTSRLSSSTEQSTSSRLIRKHKRRRRKQRLRQTDRASSFSSITDSTMSLNIITVTLNMERHHFLGISIVGQSNDRGDGGIYIGSIMKGGAVAADGRIEPGDMLLQVNDVNFENMSNDDAVRVLREIVSQTGPISLTVAKCWDPTPRSYFTIPRADPVRPIDPAAWLSHTAALTGALPRYGTSPCSSAVTRTSSSSLTSSVPGAPQLEEAPLTVKSDMGAVVRVMQLPDSGLEIRDRMWLKITIANAVIGADVVDWLYAHLEGFRERREARKYASSMLKRGFLRHTVNKVTFSEQCYYVFGDLCSNLAALNLNSGSSGASDQDTLAPLPHPAAPWPLGQGYPYQYPGPPPCFPPAYQDPGFGYGSGSAGSQQSEGSKSSGSTRSAGGSSRRALGREKESRSAGAGGSGSESDHTVPSGAGGSGWRERPPSQLSRGSSPRSQASAAAPGLPPLHPLTKAYSVVGGPPGGPPVRELAAVPPELTGSRQSFQKAMGNPCEFFVDIM

Assays:
occludin = biological target: T1, occludin (UniProt Q16625); assay: co-IP; cDNAs of PCDHGC3 and occludin co-transfected into mammalian cells; immunoprecipitated with anti-occludin antibody; Western blot; non-immunoprecipitated cell lysate as control
T1 sequence: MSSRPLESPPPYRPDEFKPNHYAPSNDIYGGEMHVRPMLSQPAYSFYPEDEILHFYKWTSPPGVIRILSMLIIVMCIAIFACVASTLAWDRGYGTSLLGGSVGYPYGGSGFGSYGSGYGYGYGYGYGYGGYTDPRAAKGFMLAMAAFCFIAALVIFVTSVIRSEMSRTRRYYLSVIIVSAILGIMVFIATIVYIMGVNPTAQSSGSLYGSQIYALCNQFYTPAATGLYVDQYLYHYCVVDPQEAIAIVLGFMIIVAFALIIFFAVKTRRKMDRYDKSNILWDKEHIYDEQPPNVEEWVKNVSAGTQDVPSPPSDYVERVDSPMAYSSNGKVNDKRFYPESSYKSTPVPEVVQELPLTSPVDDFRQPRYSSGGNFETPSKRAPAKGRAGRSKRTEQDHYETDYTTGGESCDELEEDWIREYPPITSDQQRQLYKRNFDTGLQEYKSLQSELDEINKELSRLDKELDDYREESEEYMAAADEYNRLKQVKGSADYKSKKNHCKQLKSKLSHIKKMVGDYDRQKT

[1] = biological target: T2, claudin-5 (bovine (endogenous in primary bovine retinal endothelial cells)) (UniProt Q2HJ22); assay: co-IP; co-immunoprecipitation of endogenous protein in primary bovine retinal endothelial cells (BREC); interaction most abundant with VEGF/norrin co-stimulation
T2 sequence: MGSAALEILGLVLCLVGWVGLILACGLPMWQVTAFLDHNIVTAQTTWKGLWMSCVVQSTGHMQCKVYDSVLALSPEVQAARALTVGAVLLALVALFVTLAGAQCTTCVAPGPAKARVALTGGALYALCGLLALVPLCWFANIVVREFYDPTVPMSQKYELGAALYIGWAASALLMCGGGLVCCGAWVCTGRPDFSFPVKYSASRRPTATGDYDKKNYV

| binding (occludin) | binding [1] | Molecule |
| --- | --- | --- |
| binds |  | protocadherin gamma C3 (PCDHGC3) (from UniProt Q9UN70 32-934) |
|  | binds | B1 |
